# Measurements: the supplement of paper PMC3334620
# Over roughly 33,000 sequences, “E-score (-0.5 to 0.5)” has its median near -0.015; the highest 2% begin near 0.3. The list shows a part of the results.
# Biological target: T1, Abf1 (UniProt P14164)
# T1 sequence: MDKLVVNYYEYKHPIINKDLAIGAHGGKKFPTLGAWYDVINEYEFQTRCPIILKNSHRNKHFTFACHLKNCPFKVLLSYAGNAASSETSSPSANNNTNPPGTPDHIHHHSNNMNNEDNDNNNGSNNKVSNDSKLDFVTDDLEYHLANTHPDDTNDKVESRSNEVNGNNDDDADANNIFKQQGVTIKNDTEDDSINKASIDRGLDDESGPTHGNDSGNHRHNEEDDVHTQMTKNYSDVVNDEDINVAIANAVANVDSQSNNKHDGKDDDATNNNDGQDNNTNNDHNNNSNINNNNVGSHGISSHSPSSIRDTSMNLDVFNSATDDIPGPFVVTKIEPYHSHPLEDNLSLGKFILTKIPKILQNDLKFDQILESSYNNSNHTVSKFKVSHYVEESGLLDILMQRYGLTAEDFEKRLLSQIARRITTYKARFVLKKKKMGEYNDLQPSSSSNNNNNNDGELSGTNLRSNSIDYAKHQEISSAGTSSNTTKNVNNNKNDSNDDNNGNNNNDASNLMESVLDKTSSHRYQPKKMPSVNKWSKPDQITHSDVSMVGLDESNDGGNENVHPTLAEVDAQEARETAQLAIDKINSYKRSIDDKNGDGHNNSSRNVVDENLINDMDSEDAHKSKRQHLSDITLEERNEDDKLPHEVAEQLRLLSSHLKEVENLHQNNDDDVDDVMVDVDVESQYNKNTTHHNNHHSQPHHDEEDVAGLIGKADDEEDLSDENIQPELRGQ
# Test: PBM E-score (8-mer binding enrichment) (E-score (-0.5 to 0.5)); higher = stronger / more preferred TF binding
# Conditions: protein concentration: 200 nM; construct: GST-full length
# Description: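 Universal 'all 10-mer' protein binding microarrays (Agilent AMADID 015681) probed with GST-tagged S. cerevisiae TFs (full-length or DBD) made by in vitro transcription/translation (PURExpress), about 100-200 nM. Bound TF was detected with fluorescent anti-GST. Each ungapped 8-mer (which stands for itself and its reverse complement) is scored by the PBM enrichment score (E-score), a modified Wilcoxon-Mann-Whitney statistic from -0.5 to +0.5, computed with the Universal PBM Analysis Suite. Scale: above 0.35 generally sequence-specific binding.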
row,Sequence,PBM E-score
1,ACATAAAA,0.147
2,AAATCAGA,0.195
3,CTGCCGAC,-0.121
4,GATAGTAC,0.129
5,AACAGTGG,-0.155
6,ATCTTTCG,0.0828
7,CCTACCCC,-0.374
8,GGTCATAA,0.0104
9,ACGTCAAG,0.154
10,AAGGCACA,-0.0687
11,TAGGGTAA,-0.00561
12,ACGTGAAA,0.261
13,ATCATGAT,0.416
14,CGCCATTC,-0.00985
15,ACCCACTA,0.0205
16,AGTGCCCC,-0.194
17,CATCGAGG,-0.129
18,GTGCTCAA,0.178
19,CCTCCCCC,-0.409
20,AGAAAGTA,0.117
21,GGCGCGAC,-0.0287
22,CCGTGCAC,0.31
23,AAATGCCA,0.0339
24,ATCCTCCC,-0.202
25,CATTACCA,0.045

row,Sequence,PBM E-score
1,AGGCGGGG,-0.235
2,CAAGGACC,-0.049
3,ACGTGTAA,0.235
4,AAGCGCAG,-0.116
5,ATTATTTA,0.254
6,ATATTCGA,0.0536
7,CCTTACTA,0.0197
8,ACACTGTA,0.0152
9,TCTCTCCA,-0.031
10,TCCCAGAA,-0.0505
11,CCCGAATC,-0.0912
12,TCGCCTCA,0.0789
13,GTATGCGA,0.0467
14,AGCGTACC,-0.229
15,ACAGATAA,-0.0725
16,CTCCGTTA,0.172
17,AATCAATC,0.157
18,GATGTTAA,0.109
19,ACGTGAAC,0.00568
20,CGTGGAAC,0.206
21,ATTGTGGA,-0.0505
22,GACGGGGA,0.168
23,CGCGGGCC,-0.0335
24,CCATTCAG,-0.098
25,CAGATGCC,-0.146

# Rewritten with bars between the fields: entries from further up
row | Sequence | PBM E-score
19 | ACGTGAAC | 0.00568
20 | CGTGGAAC | 0.206
21 | ATTGTGGA | -0.0505
22 | GACGGGGA | 0.168
23 | CGCGGGCC | -0.0335
24 | CCATTCAG | -0.098
25 | CAGATGCC | -0.146

# Taken from above.
# ACGTGAAC – PBM E-score: 0.00568
# TCGCCTCA – PBM E-score: 0.0789

# Later entries:

row,Sequence,PBM E-score
1,CACTACAG,-0.0739
2,CGGAGTAC,0.00568
3,GGTAACCA,-0.206
4,ATGTAGTC,0.0332
5,GCTTTGAA,-0.0788
6,TGATCCCA,-0.0944
7,CCCGTGAG,0.0776
8,CCCGCAGG,-0.169
9,TAGTACAA,0.098
10,AAAAGCCA,-0.0538
11,CGCACTTA,-0.0116
12,TCGGTACA,-0.0742
13,ACGTCAGG,-0.0567
14,CATCGGGG,-0.206
15,AAAGGCTG,-0.236
16,CACTTCTA,0.047
17,AAGAACGA,0.253
18,CTGATCAC,0.294
19,GCTTGGTA,-0.0205
20,AGGTCCTA,-0.211
21,GGATGGGA,-0.25
22,CATGGTAC,-0.136
23,GCTCCAAA,-0.0766
24,ATCCTATG,0.0287
25,AACGAGCA,0.108

row,Sequence,PBM E-score
1,ATTAATAA,0.129
2,ATCTCCGG,-0.067
3,AATCATGG,-0.0546
4,TGAGGGAA,-0.159
5,ATTTAAGG,0.171
6,CTACGCTA,-0.0892
7,AACGTCTC,0.0454
8,AATAGTCA,0.204
9,AGCAGGCC,-0.212
10,ATTTCTGG,-0.0765
11,ATCTCGAA,0.0741
12,GGAGGATA,0.0711
13,CTGTGAGC,0.0673
14,CGTCATCA,0.349
15,CCCTACAC,-0.0163
16,AATGAGGT,0.184
17,TACACGTA,0.07
18,CTAGTCTC,-0.138
19,CAACGCAC,-0.0614
20,ATAATAGC,0.0936
21,CCTGTTCA,-0.0118
22,AAATTTTC,0.0539
23,ACTTGTGG,-0.236
24,CACTTAGC,-0.112
25,ACCTATCC,-0.0243

row,Sequence,PBM E-score
1,CATGACTA,0.152
2,AATTAATG,0.128
3,CCCACAAG,-0.302
4,CAAGGAGC,-0.363
5,AAGGATCG,-0.0401
6,TCGACTAA,0.00887
7,CCGTGTCA,0.268
8,CTGCTACA,-0.0874
9,CGCGGAGA,0.0532
10,ATTCCTGA,-0.088
11,AAATGACA,0.358
12,TCGAGACA,0.0475
13,CCGGGGCC,-0.183
14,CCCCCCCC,-0.455
15,CAAACTTC,0.0794
16,AGGTACTA,0.0847
17,CCCTGGGC,-0.325
18,ATATCCGA,0.2
19,AGTATCCG,0.209
20,ACGGAGTC,0.0181
21,CCCCGGTA,-0.16
22,CACCCCCC,-0.356
23,AAAACAGC,-0.235
24,CACGGACC,0.0752
25,GTCCGATA,0.0454

row,Sequence,PBM E-score
1,TGTCGCAA,0.00536
2,AACCCTAG,-0.00875
3,GAGGACGC,-0.202
4,GAATGAGC,0.051
5,GAGCTGGC,-0.166
6,CCGTAGTC,-0.0228
7,ACACAGGA,-0.0696
8,CGTCCAGC,-0.0241
9,GCATGAGC,0.0199
10,ATTGTGGC,0.0319
11,AAACCTCA,0.048
12,AAACGACC,0.228
13,AACATGGC,-0.172
14,AATGGGAA,-0.238
15,ATACAATG,0.132
16,GGGGCACC,-0.23
17,AAGAAGAT,0.141
18,CGGTGAAA,0.186
19,AAAGTAAA,0.00942
20,CTTTTCCC,0.0095
21,ATTGCATC,-0.114
22,ATGAGTAA,-0.0375
23,AGAAAGTG,-0.0413
24,GTACATAC,0.0732
25,TCTGCAAA,0.0364

row,Sequence,PBM E-score
1,AGAGCCTA,-0.221
2,AGCGCCGA,-0.115
3,ATCACAAC,0.176
4,AAGAAATA,0.146
5,ATGCTATA,0.0713
6,CTCCTTTA,-0.178
7,GCAATAGA,0.0325
8,AACACGTT,-0.0453
9,GCTCCACA,-0.197
10,CAACTGAC,-0.126
11,ACGAAAAG,0.218
12,GAAAAAGC,0.0697
13,ATCTTAAG,0.0565
14,CTTAACTA,0.142
15,CTAGTGAG,-0.0339
16,CGTCTGAC,0.15
17,TGTAACAA,0.0346
18,CAGGTGGA,-0.203
19,ACTTTCAT,0.0673
20,AATAGGGC,0.0151
21,ATTCTCAG,-0.0263
22,ATCAGAAA,-0.159
